In publication PMC11497104 one finds binding data, which are given here for two substances.

Amino acid sequences for entries named in this document (tags omitted).
UniProt Q00987: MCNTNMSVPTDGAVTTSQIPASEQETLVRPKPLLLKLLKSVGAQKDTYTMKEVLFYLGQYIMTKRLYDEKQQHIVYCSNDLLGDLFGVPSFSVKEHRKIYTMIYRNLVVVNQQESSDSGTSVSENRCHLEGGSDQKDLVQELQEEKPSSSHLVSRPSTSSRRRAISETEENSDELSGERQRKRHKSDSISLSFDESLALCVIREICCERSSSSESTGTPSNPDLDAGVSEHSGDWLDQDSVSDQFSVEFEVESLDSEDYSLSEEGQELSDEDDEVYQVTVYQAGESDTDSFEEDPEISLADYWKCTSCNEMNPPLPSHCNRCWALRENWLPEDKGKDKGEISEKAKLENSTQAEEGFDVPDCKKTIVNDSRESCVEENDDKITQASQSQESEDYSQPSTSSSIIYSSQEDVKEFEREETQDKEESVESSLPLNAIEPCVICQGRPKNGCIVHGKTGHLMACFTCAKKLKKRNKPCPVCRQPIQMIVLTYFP

No constants are given. Whether binding was seen depends on the method and setting. Binding seen in cells or lysates may run through a third protein. Some entries that bind do so weakly or less than the wild type. For some assays here: Where a sequence is shown, tags or fusion partners need not be part of it.

Experiment [1] concerns the target T1, Flag-tagged FGF12 (fibroblast growth factor 12) (UniProt P61328).
T1 sequence: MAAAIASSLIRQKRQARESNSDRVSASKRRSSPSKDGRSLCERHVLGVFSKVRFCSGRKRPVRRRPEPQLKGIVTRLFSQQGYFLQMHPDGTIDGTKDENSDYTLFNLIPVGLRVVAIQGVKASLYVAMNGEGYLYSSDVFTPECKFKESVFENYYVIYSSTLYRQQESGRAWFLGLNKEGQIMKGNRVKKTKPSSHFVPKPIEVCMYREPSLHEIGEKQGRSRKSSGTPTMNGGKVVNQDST
Nature of the experiment: co-IP; HEK293 cells co-transfected with Flag-Fgf12 and His-MDM2 (WT or deletion mutants), 48 h; lysates precipitated with anti-His or anti-Flag antibody, blotted for the other tag.

In experiment [2] the target is T2, FGF12 (endogenous, keratinocytes) (human (endogenous in HaCaT and NHEK)) (UniProt P61328).
T2 sequence: T1 sequence
Nature of the experiment: co-IP; endogenous proteins, HaCaT lysates; precipitated with anti-MDM2 (IgG as control) or anti-FGF12; untreated, M5 for 0, 12, 24, 48 h, or si-Scr/si-Fgf12.

With “His-tagged MDM2 (His-MDM2-WT) (from UniProt Q00987 1-491)”, the binding result in experiment [1] is listed as “binds”. As for “MDM2 (endogenous, keratinocytes) (from UniProt Q00987 1-491)”, in experiment [2], the binding result is recorded as “binds”.
